These are yes or no findings as the source states them, for the method shown. Some entries that bind do so weakly or less than the wild type.
Legend:
[1] = target: Insulin-like Growth Factor Receptor (IGFR; Type I IGF receptor) (UniProt P08069); assay: IGFR competitive binding
[2] = target: Insulin-like Growth Factor Receptor (IGFR; Type I IGF receptor) (UniProt P08069); assay: displacement of 125I-IGF-1 from IGFR

Chains of the proteins cited; added tags and fusions are not shown. Residues count along the entry.
UniProt P08069, residues 31-1367: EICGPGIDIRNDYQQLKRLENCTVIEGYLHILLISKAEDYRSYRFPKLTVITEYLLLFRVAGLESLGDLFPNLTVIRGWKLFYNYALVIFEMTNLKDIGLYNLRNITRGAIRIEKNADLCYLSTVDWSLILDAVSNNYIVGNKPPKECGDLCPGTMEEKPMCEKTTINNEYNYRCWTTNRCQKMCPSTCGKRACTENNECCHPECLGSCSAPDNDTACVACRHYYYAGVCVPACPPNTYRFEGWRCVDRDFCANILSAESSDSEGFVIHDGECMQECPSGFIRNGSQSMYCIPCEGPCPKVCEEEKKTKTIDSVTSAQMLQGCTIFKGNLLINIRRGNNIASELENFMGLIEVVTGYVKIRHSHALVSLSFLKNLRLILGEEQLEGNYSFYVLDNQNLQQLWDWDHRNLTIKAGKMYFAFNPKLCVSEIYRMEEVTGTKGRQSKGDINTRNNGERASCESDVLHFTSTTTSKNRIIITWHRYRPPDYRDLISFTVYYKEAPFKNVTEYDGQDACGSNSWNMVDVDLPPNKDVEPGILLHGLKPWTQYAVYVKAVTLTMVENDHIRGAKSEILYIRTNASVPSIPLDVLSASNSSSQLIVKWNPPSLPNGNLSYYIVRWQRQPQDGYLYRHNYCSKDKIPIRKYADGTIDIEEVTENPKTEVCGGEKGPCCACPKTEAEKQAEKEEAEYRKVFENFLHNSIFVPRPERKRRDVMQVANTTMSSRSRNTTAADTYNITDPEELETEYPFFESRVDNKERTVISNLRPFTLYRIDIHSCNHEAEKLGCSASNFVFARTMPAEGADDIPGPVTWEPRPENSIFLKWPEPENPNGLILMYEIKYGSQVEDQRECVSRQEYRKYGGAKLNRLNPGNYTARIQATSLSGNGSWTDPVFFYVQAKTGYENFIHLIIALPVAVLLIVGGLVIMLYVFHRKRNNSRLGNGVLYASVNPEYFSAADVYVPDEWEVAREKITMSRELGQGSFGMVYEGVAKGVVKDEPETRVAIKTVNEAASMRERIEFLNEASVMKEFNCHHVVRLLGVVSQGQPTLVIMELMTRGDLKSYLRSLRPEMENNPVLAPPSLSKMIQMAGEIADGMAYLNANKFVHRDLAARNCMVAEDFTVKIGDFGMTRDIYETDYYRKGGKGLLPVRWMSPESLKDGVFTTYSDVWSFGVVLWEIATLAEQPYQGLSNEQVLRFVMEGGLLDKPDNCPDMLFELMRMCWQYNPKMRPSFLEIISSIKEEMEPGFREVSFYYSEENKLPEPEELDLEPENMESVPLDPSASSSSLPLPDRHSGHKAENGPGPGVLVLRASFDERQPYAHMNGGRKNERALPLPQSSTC

binding [1]	binding [2]	Substance
binds	–	57mer single-chain insulin analogue (His^A8, Asp^B10, Asp^B28, Pro^B29; linker GGGPRR) (from UniProt P30407 25-110) (ligand)
–	binds	single chain insulin (SCI) wild type at position B10 (His^A8, Asp^B28, Pro^B29) (from UniProt P30407 25-110) (ligand)
